Whole data set: some 1,900 compounds, median “excess over highest single agent (ExcessHSA) synergy score, 6x6 matrix” near -83, cut for the lowest 2% near -370. Some of the results follow.

This experiment relates to NCI-H446. Kind of experiment: excess over highest single agent (ExcessHSA) synergy score, 6x6 matrix; higher = less synergy (more negative = stronger synergy). To be noted: 72 h; CellTiter-Glo viability.
With `Cc1ccc(Nc2cc(-c3cccc(N4C(=O)c5ccccc5C4=O)c3)ncn2)cc1NS(C)(=O)=O` + Cc1sc2c(c1C)C(c1ccc(Cl)cc1)=N[C@@H](CC(=O)OC(C)(C)C)c1nnc(C)n1-2 [NCGC00250412-19], the “excess over highest single agent” value turned out to be 40.6.

Consider `CCC1(c2ccccc2)C(=O)NCNC1=O` + Cc1sc2c(c1C)C(c1ccc(Cl)cc1)=N[C@@H](CC(=O)OC(C)(C)C)c1nnc(C)n1-2 [NCGC00250412-19], for which the “excess over highest single agent” value was -138.

Consider `CCCCc1oc2ccc(NS(C)(=O)=O)cc2c1C(=O)c1ccc(OCCCN(CCCC)CCCC)cc1` + Cc1sc2c(c1C)C(c1ccc(Cl)cc1)=N[C@@H](CC(=O)OC(C)(C)C)c1nnc(C)n1-2 [NCGC00250412-19], for which the “excess over highest single agent” value was -6.2.

For `CN1CCN(C(=O)O[C@H]2c3nccnc3C(=O)N2c2ccc(Cl)cn2)CC1` + Cc1sc2c(c1C)C(c1ccc(Cl)cc1)=N[C@@H](CC(=O)OC(C)(C)C)c1nnc(C)n1-2 [NCGC00250412-19], the “excess over highest single agent” value was found to be 45.1.

Take `Oc1c(Cl)cc(Cl)c2cccnc12` + Cc1sc2c(c1C)C(c1ccc(Cl)cc1)=N[C@@H](CC(=O)OC(C)(C)C)c1nnc(C)n1-2 [NCGC00250412-19]: the “excess over highest single agent” value was -98.5.

Turning to `COc1cc2ncnc(Nc3cccc(Br)c3)c2cc1OC` + Cc1sc2c(c1C)C(c1ccc(Cl)cc1)=N[C@@H](CC(=O)OC(C)(C)C)c1nnc(C)n1-2 [NCGC00250412-19], the “excess over highest single agent” value was -142.

`CC(=O)SC[C@@H](C)C(=O)N1CCC[C@H]1C(=O)N[C@@H](Cc1ccccc1)C(=O)O` + Cc1sc2c(c1C)C(c1ccc(Cl)cc1)=N[C@@H](CC(=O)OC(C)(C)C)c1nnc(C)n1-2 [NCGC00250412-19]: the “excess over highest single agent” value is -183.

For the compound `C=CC(=O)Nc1cccc(Oc2nc(Nc3ccc(N4CCN(C)CC4)cc3)ncc2Cl)c1` + Cc1sc2c(c1C)C(c1ccc(Cl)cc1)=N[C@@H](CC(=O)OC(C)(C)C)c1nnc(C)n1-2 [NCGC00250412-19], the “excess over highest single agent” value was -333.

Take `O=C(N[C@@H](COc1ccc2[nH]c(=O)[nH]c2c1)c1ccccc1)c1cccn(Cc2ccc(F)c(F)c2)c1=O` + Cc1sc2c(c1C)C(c1ccc(Cl)cc1)=N[C@@H](CC(=O)OC(C)(C)C)c1nnc(C)n1-2 [NCGC00250412-19]: the “excess over highest single agent” value is -158.

As for `C[C@@](Cc1ccc(O)c(O)c1)(NN)C(=O)O` + Cc1sc2c(c1C)C(c1ccc(Cl)cc1)=N[C@@H](CC(=O)OC(C)(C)C)c1nnc(C)n1-2 [NCGC00250412-19], the “excess over highest single agent” value turned out to be 12.

On to `Nc1ncnc2c1ncn2[C@@H]1O[C@H](CO)[C@@H](O)[C@@H]1O` + Cc1sc2c(c1C)C(c1ccc(Cl)cc1)=N[C@@H](CC(=O)OC(C)(C)C)c1nnc(C)n1-2 [NCGC00250412-19], for which the “excess over highest single agent” value is -96.1.

`CCCN1CCOC2c3cc(O)ccc3OCC21` (stereo not given) + Cc1sc2c(c1C)C(c1ccc(Cl)cc1)=N[C@@H](CC(=O)OC(C)(C)C)c1nnc(C)n1-2 [NCGC00250412-19]: the “excess over highest single agent” value is 11.

Take `O=C1CC[C@@]2(O)[C@H]3Cc4ccc(O)c5c4[C@@]2(CCN3CC2CC2)[C@H]1O5` + Cc1sc2c(c1C)C(c1ccc(Cl)cc1)=N[C@@H](CC(=O)OC(C)(C)C)c1nnc(C)n1-2 [NCGC00250412-19]: the “excess over highest single agent” value was determined as 14.6.

In the case of `CC(C)c1ccccc1Cc1cc(C(=O)Nc2ccc(S(=O)(=O)c3ccccc3C(C)(C)C)cc2)c(O)c(O)c1O` + Cc1sc2c(c1C)C(c1ccc(Cl)cc1)=N[C@@H](CC(=O)OC(C)(C)C)c1nnc(C)n1-2 [NCGC00250412-19], the “excess over highest single agent” value is -282.

Regarding `O=C(O)CCc1ccc(NCc2cccc(Oc3ccccc3)c2)cc1` + Cc1sc2c(c1C)C(c1ccc(Cl)cc1)=N[C@@H](CC(=O)OC(C)(C)C)c1nnc(C)n1-2 [NCGC00250412-19], the “excess over highest single agent” value is -84.

Turning to `Cc1cc2nc3c(=O)[nH]c(=O)nc-3n(C[C@H](O)[C@H](O)[C@H](O)CO)c2cc1C` + Cc1sc2c(c1C)C(c1ccc(Cl)cc1)=N[C@@H](CC(=O)OC(C)(C)C)c1nnc(C)n1-2 [NCGC00250412-19], the “excess over highest single agent” value was determined as 52.8.

On to `CCCOc1ccc2[nH]c(NC(=O)OC)nc2c1` + Cc1sc2c(c1C)C(c1ccc(Cl)cc1)=N[C@@H](CC(=O)OC(C)(C)C)c1nnc(C)n1-2 [NCGC00250412-19], for which the “excess over highest single agent” value was -107.

Regarding `CC(C)(C)c1cc(C=C(C#N)C#N)cc(Br)c1O` + Cc1sc2c(c1C)C(c1ccc(Cl)cc1)=N[C@@H](CC(=O)OC(C)(C)C)c1nnc(C)n1-2 [NCGC00250412-19], the “excess over highest single agent” value was found to be 66.7.

In the case of `CC(=O)OCCN1C(=O)c2c(C)nc3ccc(S(=O)(=O)N4CCOCC4)cc3c2C1=O` + Cc1sc2c(c1C)C(c1ccc(Cl)cc1)=N[C@@H](CC(=O)OC(C)(C)C)c1nnc(C)n1-2 [NCGC00250412-19], the “excess over highest single agent” value was -159.

`CCS(=O)(=O)N1CC(CC#N)(n2cc(-c3ncnc4[nH]ccc34)cn2)C1` + Cc1sc2c(c1C)C(c1ccc(Cl)cc1)=N[C@@H](CC(=O)OC(C)(C)C)c1nnc(C)n1-2 [NCGC00250412-19]: the “excess over highest single agent” value was 16.4.

As for `Nc1nc(NCCNc2ncc(-n3ccnc3)c(-c3ccc(Cl)cc3Cl)n2)ccc1[N+](=O)[O-]` + Cc1sc2c(c1C)C(c1ccc(Cl)cc1)=N[C@@H](CC(=O)OC(C)(C)C)c1nnc(C)n1-2 [NCGC00250412-19], the “excess over highest single agent” value stood at 4.27.

As for `CC(C)[C@]12O[C@H]1[C@@H]1O[C@]13[C@]1(O[C@H]1C[C@H]1C4=C(CC[C@@]13C)C(=O)OC4)[C@@H]2O` + Cc1sc2c(c1C)C(c1ccc(Cl)cc1)=N[C@@H](CC(=O)OC(C)(C)C)c1nnc(C)n1-2 [NCGC00250412-19], the “excess over highest single agent” value is -197.

Consider `Nc1nccc(Oc2ccc(NC(=O)c3c[nH]cc(-c4ccc(F)cc4)c3=O)cc2F)c1Cl` + Cc1sc2c(c1C)C(c1ccc(Cl)cc1)=N[C@@H](CC(=O)OC(C)(C)C)c1nnc(C)n1-2 [NCGC00250412-19], for which the “excess over highest single agent” value was found to be 62.6.

In the case of `COc1cccc2c(NCc3ccccc3)nc(-n3c(N)nc4ccccc43)nc12` + Cc1sc2c(c1C)C(c1ccc(Cl)cc1)=N[C@@H](CC(=O)OC(C)(C)C)c1nnc(C)n1-2 [NCGC00250412-19], the “excess over highest single agent” value is -82.6.

For `NC(=O)Nc1cc(-c2cccc(F)c2)sc1C(=O)N[C@H]1CCCNC1` + Cc1sc2c(c1C)C(c1ccc(Cl)cc1)=N[C@@H](CC(=O)OC(C)(C)C)c1nnc(C)n1-2 [NCGC00250412-19], the “excess over highest single agent” value turned out to be 1.35.

For the origin of these results see the supplement of paper PMC10077471.
